Measurements published in publication PMC5586024.

Amino acid sequences for entries named in this document (tags omitted). A change or cut given only in a name is not applied to a line headed by its entry.
UniProt P10637: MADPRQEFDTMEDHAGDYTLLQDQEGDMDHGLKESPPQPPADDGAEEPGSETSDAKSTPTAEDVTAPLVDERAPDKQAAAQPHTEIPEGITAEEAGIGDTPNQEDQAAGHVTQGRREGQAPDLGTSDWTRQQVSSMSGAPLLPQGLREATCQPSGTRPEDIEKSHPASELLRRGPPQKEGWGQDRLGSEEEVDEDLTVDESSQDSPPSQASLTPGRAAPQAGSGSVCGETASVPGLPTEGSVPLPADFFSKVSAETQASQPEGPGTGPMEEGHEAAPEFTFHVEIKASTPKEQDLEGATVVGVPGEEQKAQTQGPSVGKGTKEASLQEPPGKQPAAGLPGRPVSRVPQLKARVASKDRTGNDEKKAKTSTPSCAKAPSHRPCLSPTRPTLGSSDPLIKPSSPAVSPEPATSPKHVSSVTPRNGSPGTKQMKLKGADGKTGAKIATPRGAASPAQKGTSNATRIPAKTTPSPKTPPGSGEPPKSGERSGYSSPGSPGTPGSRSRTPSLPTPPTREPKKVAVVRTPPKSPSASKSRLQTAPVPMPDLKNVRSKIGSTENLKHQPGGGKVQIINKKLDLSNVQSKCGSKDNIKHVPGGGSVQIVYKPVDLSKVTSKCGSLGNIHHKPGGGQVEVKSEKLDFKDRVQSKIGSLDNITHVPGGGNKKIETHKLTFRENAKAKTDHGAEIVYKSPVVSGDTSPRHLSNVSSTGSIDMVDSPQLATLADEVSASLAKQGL

Key:
[1] = biological target: tau (mouse (endogenous in hippocampus)) (UniProt P10637); assay: co-IP; as a1, but P2 fraction of the unstimulated contralateral (control) hippocampus of the same aged mice, without LFS
[2] = biological target: tau (mouse (endogenous in hippocampus)) (UniProt P10637); assay: condition: only contralateral hippocampus, without LFS; co-IP; as a1, but P2 fraction of the unstimulated contralateral (control) hippocampus of the same aged mice, without LFS
[3] = biological target: tau (mouse (endogenous in hippocampus)) (UniProt P10637); assay: co-IP; tau oligomer antibody T22 coupled to NHS-activated magnetic beads; P2 fraction of the LFS-stimulated (ipsilateral) hippocampus of aged mice in HSB with 0.5% Triton X-100, overnight at 4 °C; SDS-PAGE and western blot

binding [1]: binds weakly
binding [2]: no binding
binding [3]: binds
B1: NDP52 (protein, UniProt A2A6M5 1-331)
chain: MDQCPIPTLLEHGNFSQVLFNNVEKFYAPRGDIMCYYTLTEKFIPRRKDWIGIFKVGWKTTQEYYTFMWAPLPKDQNKDSATQQEIQFKAYYLPKDVERYQFCYVDEDGLVRGTSVPFQFCPDPDEDIMVVINKEKVEEMEQLSEELYQQNQELKDKYADLHEQLQRKQVALEATQRVNKTLEHKVEEKASWEKEKASWEEEKASWEEEKASWEEEKASWEEEKASWEEEKASWEEEKASWEEEKASWEEEKASWEEEKASWEEEKASWEEEKASWEEEKASWEEEKASWEKEKASWEEEKASWEKEKAPWEVEKAPWKEVKAYWWNDLHR

Results are given in words; binding and its absence hold for the method and conditions named. In cells and extracts the contact can be indirect. For part of these data: Binding calls can cover weak binding; strength is not graded here.
